Data reported in the supplement of paper PMC10849652.
Some of the results follow.

Protein sequences, listed by entry. Tags and fused reporters are not part of them. Lines headed by an entry give the natural chain unless they say otherwise; changes in a name come on top.
UniProt O15533, whole entry, looked up: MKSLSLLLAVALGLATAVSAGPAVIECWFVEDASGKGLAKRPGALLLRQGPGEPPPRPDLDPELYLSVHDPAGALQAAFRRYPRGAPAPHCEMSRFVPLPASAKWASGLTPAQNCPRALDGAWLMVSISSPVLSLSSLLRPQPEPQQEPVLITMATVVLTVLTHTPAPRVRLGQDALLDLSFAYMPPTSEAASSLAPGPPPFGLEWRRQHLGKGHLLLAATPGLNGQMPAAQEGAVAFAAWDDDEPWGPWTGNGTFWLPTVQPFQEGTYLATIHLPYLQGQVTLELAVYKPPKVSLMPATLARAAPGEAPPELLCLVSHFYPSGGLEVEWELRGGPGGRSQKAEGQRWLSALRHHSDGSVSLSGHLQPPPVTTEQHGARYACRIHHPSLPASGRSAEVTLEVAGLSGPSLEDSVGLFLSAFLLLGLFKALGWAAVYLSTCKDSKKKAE
UniProt A7MCY6, whole entry, looked up: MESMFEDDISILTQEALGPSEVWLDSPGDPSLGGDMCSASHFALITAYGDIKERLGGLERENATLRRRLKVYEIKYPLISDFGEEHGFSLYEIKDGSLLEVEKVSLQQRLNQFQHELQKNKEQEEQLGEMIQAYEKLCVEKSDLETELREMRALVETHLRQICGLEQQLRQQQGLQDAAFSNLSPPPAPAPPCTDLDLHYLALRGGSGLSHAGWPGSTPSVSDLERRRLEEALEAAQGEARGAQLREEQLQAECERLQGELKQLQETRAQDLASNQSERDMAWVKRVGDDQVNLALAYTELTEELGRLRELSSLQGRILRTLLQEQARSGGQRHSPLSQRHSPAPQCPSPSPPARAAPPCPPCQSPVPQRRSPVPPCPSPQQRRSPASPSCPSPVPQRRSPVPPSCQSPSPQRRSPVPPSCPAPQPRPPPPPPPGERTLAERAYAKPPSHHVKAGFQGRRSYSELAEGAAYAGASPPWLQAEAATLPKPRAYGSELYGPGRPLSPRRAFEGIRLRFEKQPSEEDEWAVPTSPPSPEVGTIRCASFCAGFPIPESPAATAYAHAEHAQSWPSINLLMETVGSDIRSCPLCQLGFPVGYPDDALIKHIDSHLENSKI
UniProt Q9NZ01: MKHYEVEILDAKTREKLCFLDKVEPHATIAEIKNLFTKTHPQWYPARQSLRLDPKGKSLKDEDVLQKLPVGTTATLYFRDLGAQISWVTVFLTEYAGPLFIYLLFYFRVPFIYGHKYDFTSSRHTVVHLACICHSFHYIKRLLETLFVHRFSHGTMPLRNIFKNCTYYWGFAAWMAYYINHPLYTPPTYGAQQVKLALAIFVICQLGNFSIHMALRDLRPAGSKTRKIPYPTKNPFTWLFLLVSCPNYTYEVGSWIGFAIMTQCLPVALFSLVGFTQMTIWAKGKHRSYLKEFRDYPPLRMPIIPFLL
UniProt Q15561, whole entry, looked up: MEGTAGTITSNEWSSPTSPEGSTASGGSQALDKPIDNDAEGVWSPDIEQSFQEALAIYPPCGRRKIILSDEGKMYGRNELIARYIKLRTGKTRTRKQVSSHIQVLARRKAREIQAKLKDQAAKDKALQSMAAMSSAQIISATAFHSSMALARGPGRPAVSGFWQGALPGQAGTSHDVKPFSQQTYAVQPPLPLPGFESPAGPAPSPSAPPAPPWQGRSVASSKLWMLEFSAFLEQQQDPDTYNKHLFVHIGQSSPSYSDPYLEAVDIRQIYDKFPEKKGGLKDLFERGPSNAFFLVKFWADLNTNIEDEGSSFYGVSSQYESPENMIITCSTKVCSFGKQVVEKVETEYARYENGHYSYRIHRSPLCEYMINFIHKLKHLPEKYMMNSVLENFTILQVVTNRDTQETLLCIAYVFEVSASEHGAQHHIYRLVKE
UniProt Q8WVM0: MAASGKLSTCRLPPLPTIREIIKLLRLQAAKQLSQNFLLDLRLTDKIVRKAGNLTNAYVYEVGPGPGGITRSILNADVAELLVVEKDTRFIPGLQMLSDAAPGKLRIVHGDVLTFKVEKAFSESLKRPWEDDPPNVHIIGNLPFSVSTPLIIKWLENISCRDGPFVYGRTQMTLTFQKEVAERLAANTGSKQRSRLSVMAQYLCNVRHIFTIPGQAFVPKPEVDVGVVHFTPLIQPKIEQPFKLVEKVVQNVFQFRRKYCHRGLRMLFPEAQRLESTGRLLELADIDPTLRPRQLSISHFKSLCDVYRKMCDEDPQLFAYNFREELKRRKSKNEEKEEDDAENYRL
UniProt O14907: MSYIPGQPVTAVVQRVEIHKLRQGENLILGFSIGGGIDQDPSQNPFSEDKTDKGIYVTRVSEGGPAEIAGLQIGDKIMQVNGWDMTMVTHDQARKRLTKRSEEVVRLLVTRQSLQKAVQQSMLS
UniProt Q9P2M4: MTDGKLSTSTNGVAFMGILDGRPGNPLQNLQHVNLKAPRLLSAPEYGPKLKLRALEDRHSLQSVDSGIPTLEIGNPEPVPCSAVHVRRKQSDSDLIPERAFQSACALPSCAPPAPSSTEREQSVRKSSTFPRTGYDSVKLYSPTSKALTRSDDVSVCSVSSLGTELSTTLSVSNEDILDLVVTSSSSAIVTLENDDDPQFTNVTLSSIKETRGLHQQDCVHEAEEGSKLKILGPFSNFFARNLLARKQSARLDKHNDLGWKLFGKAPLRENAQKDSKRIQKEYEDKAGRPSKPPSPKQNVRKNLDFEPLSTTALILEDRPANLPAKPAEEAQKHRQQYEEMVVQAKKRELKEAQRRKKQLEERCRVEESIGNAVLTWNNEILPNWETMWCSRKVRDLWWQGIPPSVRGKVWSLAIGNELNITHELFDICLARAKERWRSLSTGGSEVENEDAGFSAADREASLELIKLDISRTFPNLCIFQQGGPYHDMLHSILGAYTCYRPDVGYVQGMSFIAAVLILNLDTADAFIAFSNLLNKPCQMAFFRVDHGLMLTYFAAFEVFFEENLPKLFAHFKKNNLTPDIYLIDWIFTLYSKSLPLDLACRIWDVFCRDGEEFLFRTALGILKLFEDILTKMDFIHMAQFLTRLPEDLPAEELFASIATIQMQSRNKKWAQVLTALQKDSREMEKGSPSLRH
UniProt Q9BYX2: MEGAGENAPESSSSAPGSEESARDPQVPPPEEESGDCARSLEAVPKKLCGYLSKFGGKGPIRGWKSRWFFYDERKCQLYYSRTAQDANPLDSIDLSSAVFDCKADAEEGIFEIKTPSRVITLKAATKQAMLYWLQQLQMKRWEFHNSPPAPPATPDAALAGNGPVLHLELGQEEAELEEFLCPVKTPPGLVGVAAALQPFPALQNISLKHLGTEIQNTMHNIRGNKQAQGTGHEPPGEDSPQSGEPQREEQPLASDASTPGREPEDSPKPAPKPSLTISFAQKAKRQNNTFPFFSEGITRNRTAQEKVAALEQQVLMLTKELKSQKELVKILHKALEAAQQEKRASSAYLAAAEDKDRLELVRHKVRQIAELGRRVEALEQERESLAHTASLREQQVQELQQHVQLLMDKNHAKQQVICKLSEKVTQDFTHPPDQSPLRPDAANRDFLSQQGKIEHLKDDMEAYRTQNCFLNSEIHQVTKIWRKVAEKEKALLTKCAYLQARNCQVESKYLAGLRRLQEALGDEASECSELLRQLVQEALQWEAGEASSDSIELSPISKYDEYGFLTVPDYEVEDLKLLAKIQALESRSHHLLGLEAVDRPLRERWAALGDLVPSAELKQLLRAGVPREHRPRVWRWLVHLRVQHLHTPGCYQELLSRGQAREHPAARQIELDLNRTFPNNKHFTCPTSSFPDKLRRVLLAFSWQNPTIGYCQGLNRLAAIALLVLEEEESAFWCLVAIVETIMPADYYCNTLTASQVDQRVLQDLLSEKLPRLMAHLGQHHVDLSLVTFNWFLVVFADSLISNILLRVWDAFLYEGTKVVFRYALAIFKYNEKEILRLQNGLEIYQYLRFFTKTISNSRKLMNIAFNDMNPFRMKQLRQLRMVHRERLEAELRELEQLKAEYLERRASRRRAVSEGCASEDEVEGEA
UniProt Q14186: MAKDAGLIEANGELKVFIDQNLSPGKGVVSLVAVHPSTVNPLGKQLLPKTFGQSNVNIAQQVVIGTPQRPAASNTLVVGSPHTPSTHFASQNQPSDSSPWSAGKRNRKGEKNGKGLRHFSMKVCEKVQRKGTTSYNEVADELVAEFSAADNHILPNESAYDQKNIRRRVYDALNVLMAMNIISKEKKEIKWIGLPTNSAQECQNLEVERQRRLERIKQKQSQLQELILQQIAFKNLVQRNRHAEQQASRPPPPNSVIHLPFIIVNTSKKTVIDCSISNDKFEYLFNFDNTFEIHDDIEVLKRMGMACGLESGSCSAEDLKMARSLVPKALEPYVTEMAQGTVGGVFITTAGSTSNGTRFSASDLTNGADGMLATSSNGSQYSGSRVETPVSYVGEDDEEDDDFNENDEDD

How the values were obtained:
Experiment in all cases: log2 fold change, soluble protein after heating vs DMSO (PISA); higher = thermal stabilisation; K562 lysate, 10 uM; active = over 0.2 and 3.5 SD of the protein, either way, in both replicates (recomputed)
[1] = compound: C1=CC=C(C=C1)[C@H](COC2=CC3=C(C=C2)NC(=O)N3)NC(=O)C4=CC=CN(C4=O)CC5=CC(=C(C=C5)F)F
Procedure, shortened: (§1)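 A 30 min treatment with 10 μM compound was applied to crude K562 extract at 1 mg/mL protein in PBS pH 7.4 with 1 mM MgCl2. Heating for 3 min spanned 48°C-58°C, after which aliquots were pooled, adjusted to 0.5% NP-40 at 4°C and spun at 21,000xg for 90 min. TMTpro 16plex LC-MS/MS of the supernatant, with channel sums equalised, gave values recorded as log-two fold change in thermal stability against solvent controls, from duplicates.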

[2] = compound: CC1=C(SC2=C1C(=N[C@H](C3=NN=C(N32)C)CC(=O)N)C4=CC=C(C=C4)Cl)C
Procedure, shortened: as §1

[3] = compound: CC1=C2C(=CC=C1)N=C(N(C2=O)C3=CC=CC=C3C)CN4C=NC5=C(N=CN=C54)N
Procedure, shortened: as §1

[4] = compound: Cc1sc2c(c1C)C(c1ccc(Cl)cc1)=N[C@@H](CC(=O)OC(C)(C)C)c1nnc(C)n1-2
Procedure, shortened: as §1

[5] = compound: c1ccc([C@@H]2C[C@H]2NC2CCNCC2)cc1
Procedure, shortened: as §1

Measured: log2 fold change

TAPBP isoform 3 (UniProt O15533)
inactive: [1] -0.299 | [2] -0.174 | [3] 0.069 | [4] -0.043

TBKBP1 (UniProt A7MCY6)
inactive: [1] -0.02 | [2] -0.07

TECR (UniProt Q9NZ01)
inactive: [1] -0.131 | [2] 0.083 | [3] 0.015 | [4] 0.017 | [5] 0.046

2 successive records out of the list so far, quoted:
TBKBP1 (UniProt A7MCY6)
inactive: [1] -0.02 | [2] -0.07

TECR (UniProt Q9NZ01)
inactive: [1] -0.131 | [2] 0.083 | [3] 0.015 | [4] 0.017 | [5] 0.046

(cont.)

TEAD4 (UniProt Q15561)
inactive: [1] -0.076 | [2] 0.133

TFB1M (UniProt Q8WVM0)
inactive: [1] 0.043 | [2] 0.055 | [3] 0.065 | [4] -0.006 | [5] -0.025

TAX1BP3 (UniProt O14907)
inactive: [1] -0.242 | [2] 0.264 | [3] -0.02 | [4] 0.179 | [5] -0.028

TBC1D14 (UniProt Q9P2M4)
inactive: [1] 0.079 | [2] -0.124 | [3] 0.079 | [4] -0.139 | [5] 0.045

TBC1D2 (UniProt Q9BYX2)
inactive: [1] 0.01 | [2] -0.041 | [3] 0.02 | [4] 0.029 | [5] 0.01

TFDP1 (UniProt Q14186)
inactive: [1] -0.05 | [2] 0.106 | [3] -0.039 | [4] 0.104 | [5] 0.089

TEPSIN, A0A1B0GV70
inactive: [1] -0.009 | [2] 0.04 | [3] 0.058 | [4] -0.076 | [5] -0.028
